Measured values published in the supplement of paper PMC12823440, “Inhibitors supercharge kinase turnover through native proteolytic circuits” (Nature, 2025).
Some of the results follow. The calls rarely recur for the same compound in another form.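 Kinases, fused to nanoluciferase, were expressed in K562 cells; luminescence was measured every 4 h from 2 to 18 h as percent of control (DMSO = 100%, positive control = 0%). A time point is decreased if signal falls significantly (2 sigma). Hits were called by the authors by a rule that is not shown; the count of time points alone does not decide it.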

Protein sequences, listed by entry. Tags and fused reporters are not part of them. Lines headed by an entry give the natural chain unless they say otherwise; changes in a name come on top.
UniProt P00519, whole entry: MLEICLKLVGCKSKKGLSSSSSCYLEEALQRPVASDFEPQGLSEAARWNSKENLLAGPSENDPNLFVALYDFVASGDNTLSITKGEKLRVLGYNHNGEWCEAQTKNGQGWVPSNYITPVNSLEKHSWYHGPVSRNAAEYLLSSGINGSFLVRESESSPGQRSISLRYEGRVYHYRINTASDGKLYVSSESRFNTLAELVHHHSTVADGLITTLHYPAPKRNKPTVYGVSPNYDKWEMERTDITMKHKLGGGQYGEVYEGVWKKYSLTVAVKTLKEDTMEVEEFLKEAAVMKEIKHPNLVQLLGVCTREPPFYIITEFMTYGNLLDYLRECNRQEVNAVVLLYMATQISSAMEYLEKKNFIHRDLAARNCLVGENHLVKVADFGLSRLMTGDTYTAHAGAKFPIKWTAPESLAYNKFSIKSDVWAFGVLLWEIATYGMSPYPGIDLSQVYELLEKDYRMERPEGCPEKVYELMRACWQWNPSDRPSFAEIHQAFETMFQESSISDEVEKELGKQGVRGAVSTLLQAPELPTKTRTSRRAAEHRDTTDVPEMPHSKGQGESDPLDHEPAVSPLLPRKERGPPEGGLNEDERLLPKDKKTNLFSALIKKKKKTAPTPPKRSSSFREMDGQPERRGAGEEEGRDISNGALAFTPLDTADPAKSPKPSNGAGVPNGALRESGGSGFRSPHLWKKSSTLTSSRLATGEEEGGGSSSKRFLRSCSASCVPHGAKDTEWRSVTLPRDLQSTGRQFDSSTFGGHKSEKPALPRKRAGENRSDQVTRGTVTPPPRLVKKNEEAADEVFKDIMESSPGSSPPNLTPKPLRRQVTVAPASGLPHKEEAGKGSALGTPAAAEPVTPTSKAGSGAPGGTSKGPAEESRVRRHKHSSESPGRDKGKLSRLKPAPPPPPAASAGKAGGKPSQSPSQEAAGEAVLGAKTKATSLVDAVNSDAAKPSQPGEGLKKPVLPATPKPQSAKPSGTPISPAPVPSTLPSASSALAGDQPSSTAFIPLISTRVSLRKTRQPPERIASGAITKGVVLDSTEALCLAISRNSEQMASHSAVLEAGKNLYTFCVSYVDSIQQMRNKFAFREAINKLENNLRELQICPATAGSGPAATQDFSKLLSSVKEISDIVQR
UniProt P31749: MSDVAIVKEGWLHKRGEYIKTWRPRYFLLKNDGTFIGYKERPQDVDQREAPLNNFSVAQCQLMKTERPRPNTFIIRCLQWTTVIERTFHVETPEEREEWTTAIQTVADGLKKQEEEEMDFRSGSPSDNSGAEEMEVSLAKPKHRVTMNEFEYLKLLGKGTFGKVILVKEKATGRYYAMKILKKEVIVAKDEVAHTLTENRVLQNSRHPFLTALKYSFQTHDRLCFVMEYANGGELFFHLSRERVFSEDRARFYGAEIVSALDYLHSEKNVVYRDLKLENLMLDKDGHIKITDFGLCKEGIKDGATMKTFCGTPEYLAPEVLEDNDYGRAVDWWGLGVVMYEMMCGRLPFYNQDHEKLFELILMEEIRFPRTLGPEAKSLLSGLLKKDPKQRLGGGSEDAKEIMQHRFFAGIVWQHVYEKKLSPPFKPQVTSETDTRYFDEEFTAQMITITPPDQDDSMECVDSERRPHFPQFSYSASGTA
UniProt O14965: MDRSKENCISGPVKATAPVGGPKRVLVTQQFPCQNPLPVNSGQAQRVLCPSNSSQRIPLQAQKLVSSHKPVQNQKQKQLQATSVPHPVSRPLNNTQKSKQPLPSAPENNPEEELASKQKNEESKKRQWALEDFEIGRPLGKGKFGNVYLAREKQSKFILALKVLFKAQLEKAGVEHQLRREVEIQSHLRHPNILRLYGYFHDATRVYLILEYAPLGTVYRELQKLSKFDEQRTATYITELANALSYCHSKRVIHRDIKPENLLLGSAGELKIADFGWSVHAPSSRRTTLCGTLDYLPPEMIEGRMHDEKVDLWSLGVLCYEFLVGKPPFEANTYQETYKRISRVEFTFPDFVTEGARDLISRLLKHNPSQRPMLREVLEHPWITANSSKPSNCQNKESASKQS
UniProt Q9UQB9: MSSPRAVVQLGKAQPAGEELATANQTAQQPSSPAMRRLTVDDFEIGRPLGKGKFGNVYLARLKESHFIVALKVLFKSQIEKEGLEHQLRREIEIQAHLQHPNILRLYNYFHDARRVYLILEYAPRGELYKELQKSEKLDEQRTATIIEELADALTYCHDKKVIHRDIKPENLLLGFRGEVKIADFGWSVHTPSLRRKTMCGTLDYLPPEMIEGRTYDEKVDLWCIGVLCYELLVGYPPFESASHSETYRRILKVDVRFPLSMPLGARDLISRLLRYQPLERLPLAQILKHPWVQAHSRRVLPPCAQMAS
UniProt P51451: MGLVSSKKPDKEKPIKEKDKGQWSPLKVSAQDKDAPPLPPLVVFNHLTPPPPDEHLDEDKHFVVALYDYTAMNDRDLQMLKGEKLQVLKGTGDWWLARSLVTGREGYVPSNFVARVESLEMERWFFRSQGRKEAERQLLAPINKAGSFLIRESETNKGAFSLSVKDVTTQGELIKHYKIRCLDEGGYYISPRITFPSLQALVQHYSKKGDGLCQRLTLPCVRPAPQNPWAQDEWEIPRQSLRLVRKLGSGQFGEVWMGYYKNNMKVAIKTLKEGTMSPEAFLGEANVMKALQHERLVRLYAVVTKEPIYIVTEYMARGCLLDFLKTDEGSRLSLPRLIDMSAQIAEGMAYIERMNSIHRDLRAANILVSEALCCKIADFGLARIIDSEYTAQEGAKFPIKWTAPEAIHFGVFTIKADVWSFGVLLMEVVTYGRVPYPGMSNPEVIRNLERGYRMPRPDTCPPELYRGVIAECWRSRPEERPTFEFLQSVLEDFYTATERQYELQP
UniProt P51813: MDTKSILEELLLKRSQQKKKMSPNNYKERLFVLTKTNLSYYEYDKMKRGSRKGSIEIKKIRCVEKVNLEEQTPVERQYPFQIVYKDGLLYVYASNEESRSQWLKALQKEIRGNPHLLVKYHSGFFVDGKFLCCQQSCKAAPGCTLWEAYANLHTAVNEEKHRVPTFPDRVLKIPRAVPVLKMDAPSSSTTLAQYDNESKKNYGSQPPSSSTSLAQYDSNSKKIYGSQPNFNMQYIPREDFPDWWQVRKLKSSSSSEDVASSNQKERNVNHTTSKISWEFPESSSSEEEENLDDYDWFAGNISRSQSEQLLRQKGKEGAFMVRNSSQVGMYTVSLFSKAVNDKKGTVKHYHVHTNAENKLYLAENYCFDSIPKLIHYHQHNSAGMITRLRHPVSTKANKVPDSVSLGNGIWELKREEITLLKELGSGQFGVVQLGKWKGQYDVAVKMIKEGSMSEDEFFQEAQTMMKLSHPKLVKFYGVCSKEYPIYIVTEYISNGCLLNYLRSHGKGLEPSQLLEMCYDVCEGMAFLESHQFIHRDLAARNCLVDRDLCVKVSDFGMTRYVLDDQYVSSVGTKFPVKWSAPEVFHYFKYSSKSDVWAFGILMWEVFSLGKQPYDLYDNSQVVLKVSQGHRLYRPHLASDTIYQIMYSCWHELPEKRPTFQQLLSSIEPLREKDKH
UniProt Q06187: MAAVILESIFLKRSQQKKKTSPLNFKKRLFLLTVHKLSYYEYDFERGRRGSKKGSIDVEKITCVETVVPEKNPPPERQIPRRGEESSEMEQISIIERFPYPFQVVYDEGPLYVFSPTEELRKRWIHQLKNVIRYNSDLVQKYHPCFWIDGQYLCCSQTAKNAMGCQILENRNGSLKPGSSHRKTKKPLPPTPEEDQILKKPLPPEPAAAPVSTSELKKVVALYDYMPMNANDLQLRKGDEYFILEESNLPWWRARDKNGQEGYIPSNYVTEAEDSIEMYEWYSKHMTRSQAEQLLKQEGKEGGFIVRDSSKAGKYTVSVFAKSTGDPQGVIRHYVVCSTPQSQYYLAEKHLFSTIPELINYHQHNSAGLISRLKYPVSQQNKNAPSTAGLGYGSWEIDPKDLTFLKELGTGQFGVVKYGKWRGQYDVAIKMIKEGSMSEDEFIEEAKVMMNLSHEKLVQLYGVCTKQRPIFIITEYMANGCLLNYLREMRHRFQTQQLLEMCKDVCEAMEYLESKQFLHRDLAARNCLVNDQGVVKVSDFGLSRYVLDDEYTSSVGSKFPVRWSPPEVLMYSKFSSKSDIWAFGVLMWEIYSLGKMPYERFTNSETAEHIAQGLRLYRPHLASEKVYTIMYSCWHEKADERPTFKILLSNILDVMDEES
UniProt Q9UQM7, whole entry: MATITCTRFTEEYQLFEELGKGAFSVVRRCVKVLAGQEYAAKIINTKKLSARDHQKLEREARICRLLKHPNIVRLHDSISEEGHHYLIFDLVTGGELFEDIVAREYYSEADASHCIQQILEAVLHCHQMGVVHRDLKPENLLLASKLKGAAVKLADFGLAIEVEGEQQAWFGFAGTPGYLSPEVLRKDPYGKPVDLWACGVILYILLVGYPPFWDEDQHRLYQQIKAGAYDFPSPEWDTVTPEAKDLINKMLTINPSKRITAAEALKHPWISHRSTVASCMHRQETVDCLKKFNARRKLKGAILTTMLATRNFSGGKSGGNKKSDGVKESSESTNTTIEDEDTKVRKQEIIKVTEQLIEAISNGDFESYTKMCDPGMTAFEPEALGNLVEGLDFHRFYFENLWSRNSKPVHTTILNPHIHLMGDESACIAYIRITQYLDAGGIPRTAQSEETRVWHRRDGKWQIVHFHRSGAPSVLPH
UniProt Q13555: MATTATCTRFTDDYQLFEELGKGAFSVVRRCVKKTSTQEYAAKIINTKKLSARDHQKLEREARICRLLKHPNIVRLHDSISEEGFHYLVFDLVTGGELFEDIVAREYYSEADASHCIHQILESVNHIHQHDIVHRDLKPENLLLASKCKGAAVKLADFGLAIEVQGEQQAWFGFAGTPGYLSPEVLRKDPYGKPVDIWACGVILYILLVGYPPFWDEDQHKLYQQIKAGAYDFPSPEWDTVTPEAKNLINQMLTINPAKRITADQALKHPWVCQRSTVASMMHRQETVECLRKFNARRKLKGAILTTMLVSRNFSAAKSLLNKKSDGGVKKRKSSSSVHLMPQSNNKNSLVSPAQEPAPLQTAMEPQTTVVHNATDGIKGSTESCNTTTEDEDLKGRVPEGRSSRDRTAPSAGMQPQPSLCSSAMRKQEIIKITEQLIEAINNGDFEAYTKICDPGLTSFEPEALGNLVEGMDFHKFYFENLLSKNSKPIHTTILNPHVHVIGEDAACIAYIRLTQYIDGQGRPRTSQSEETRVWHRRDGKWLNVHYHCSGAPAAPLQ
UniProt Q15131: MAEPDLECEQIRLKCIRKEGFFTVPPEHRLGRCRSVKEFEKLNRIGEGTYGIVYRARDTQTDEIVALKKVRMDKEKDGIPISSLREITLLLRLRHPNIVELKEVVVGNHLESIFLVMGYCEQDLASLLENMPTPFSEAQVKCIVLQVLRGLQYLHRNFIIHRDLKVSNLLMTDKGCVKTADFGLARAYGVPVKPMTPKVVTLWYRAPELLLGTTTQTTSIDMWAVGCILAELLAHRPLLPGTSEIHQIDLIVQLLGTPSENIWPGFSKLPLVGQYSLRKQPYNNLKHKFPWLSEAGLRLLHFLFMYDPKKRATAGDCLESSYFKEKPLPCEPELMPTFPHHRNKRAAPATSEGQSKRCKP
UniProt P11802: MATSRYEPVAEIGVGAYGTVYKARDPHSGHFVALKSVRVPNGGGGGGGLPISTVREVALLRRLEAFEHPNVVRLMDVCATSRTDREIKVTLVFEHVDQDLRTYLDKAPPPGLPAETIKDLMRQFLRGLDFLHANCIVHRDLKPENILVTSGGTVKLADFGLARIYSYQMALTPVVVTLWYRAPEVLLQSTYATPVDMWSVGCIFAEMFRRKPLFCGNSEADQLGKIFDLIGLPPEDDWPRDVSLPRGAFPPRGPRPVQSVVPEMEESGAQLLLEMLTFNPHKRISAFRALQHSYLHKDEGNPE
UniProt Q00535, whole entry, looked up: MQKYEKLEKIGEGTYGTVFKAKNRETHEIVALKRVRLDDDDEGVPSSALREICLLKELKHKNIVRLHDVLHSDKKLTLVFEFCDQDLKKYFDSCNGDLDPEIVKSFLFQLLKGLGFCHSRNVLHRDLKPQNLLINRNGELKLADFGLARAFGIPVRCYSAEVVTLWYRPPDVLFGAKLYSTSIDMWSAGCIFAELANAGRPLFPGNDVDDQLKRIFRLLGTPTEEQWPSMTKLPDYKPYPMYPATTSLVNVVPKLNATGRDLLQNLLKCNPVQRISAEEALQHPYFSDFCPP
UniProt Q00534, whole entry: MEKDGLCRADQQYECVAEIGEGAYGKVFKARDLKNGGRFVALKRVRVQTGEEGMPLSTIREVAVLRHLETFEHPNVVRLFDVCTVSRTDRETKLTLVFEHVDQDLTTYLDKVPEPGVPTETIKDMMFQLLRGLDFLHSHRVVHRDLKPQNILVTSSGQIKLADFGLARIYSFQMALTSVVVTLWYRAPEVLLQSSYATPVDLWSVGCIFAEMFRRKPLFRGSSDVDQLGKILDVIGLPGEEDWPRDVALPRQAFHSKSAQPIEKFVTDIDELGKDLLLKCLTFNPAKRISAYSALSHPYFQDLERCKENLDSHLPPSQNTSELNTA

Columns and labels:
Assay in all cases: kinase-Nluc reporter destabilization hit call (1 = scored as downregulated) (binary); higher = compound decreases kinase abundance
Conditions in all cases: K562, 2-18 h
ABL1 = ABL1 (UniProt P00519)
AKT1 = AKT1 (UniProt P31749)
ALK = ALK (UniProt Q9UM73)
ARAF = ARAF (UniProt P10398)
AURKA = AURKA (UniProt O14965)
AURKB = AURKB (UniProt Q96GD4)
AURKC = AURKC (UniProt Q9UQB9)
BLK = BLK (UniProt P51451)
BMX = BMX (UniProt P51813)
BRAF = BRAF (UniProt P15056)
BRAF_V600E = system: BRAF_V600E
BTK = BTK (UniProt Q06187)
CAMK2A = CAMK2A (UniProt Q9UQM7)
CAMK2G = CAMK2G (UniProt Q13555)
CDK10 = CDK10 (UniProt Q15131)
CDK2 = CDK2 (UniProt P24941)
CDK3 = CDK3 (UniProt Q00526)
CDK4 = CDK4 (UniProt P11802)
CDK5 = CDK5 (UniProt Q00535)
CDK6 = CDK6 (UniProt Q00534)

Measured: kinase-Nluc reporter destabilization hit call

CCCC(=O)Nc1ncnc2c1ncn2[C@@H]1O[C@@H]2COP(=O)(O)O[C@H]2[C@H]1OC(=O)CCC [Bucladesine (calcium)]
inactive: ABL1; 10 µM 0 | AKT1; 10 µM 0 | ALK; 10 µM 0 | ARAF; 10 µM 0 | AURKA; 10 µM 0 | AURKB; 10 µM 0 | AURKC; 10 µM 0 | BLK; 10 µM 0 | BMX; 10 µM 0 | BRAF; 10 µM 0 | BRAF_V600E; 10 µM 0 | BTK; 10 µM 0 | CAMK2A; 10 µM 0 | CAMK2G; 10 µM 0 | CDK10; 10 µM 0 | CDK2; 10 µM 0 | CDK3; 10 µM 0 | CDK4; 10 µM 0 | CDK5; 10 µM 0 | CDK6; 10 µM 0

COc1ccnc(C[S+]([O-])c2nc3cc(-n4cccc4)ccc3[nH]2)c1C (stereo not given) [Ilaprazole (sodium)]
inactive: ABL1; 10 µM 0 | AKT1; 10 µM 0 | ALK; 10 µM 0 | ARAF; 10 µM 0 | AURKA; 10 µM 0 | AURKB; 10 µM 0 | AURKC; 10 µM 0 | BLK; 10 µM 0 | BMX; 10 µM 0 | BRAF; 10 µM 0 | BRAF_V600E; 10 µM 0 | BTK; 10 µM 0 | CAMK2A; 10 µM 0 | CAMK2G; 10 µM 0 | CDK10; 10 µM 0 | CDK2; 10 µM 0 | CDK3; 10 µM 0 | CDK4; 10 µM 0 | CDK5; 10 µM 0 | CDK6; 10 µM 0

CCCCCCCCc1ccc(CCC(N)(CO)CO)cc1 [Fingolimod]
inactive: AKT1; 2.5 µM 0 | ALK; 2.5 µM 0 | ARAF; 2.5 µM 0 | AURKA; 2.5 µM 0 | AURKB; 2.5 µM 0 | AURKC; 2.5 µM 0 | BLK; 2.5 µM 0 | BMX; 2.5 µM 0 | BRAF; 2.5 µM 0 | BRAF_V600E; 2.5 µM 0 | BTK; 2.5 µM 0 | CAMK2A; 2.5 µM 0 | CAMK2G; 2.5 µM 0 | CDK10; 2.5 µM 0 | CDK2; 2.5 µM 0 | CDK3; 2.5 µM 0 | CDK4; 2.5 µM 0 | CDK5; 2.5 µM 0 | CDK6; 2.5 µM 0
active: ABL1; 2.5 µM 1

C#Cc1cccc(Nc2ncnc3cc(OCCOC)c(OCCO)cc23)c1 [Desmethyl Erlotinib]
inactive: ABL1; 10 µM 0 | AKT1; 10 µM 0 | ALK; 10 µM 0 | ARAF; 10 µM 0 | AURKA; 10 µM 0 | AURKB; 10 µM 0 | AURKC; 10 µM 0 | BLK; 10 µM 0 | BMX; 10 µM 0 | BRAF; 10 µM 0 | BRAF_V600E; 10 µM 0 | BTK; 10 µM 0 | CAMK2A; 10 µM 0 | CAMK2G; 10 µM 0 | CDK10; 10 µM 0 | CDK2; 10 µM 0 | CDK3; 10 µM 0 | CDK4; 10 µM 0 | CDK5; 10 µM 0 | CDK6; 10 µM 0

N#CCC1(n2cc(-c3ncnc4[nH]ccc34)cn2)CN(C2CCN(C(=O)c3ccnc(C(F)(F)F)c3F)CC2)C1 [Itacitinib]
inactive: ABL1; 10 µM 0 | AKT1; 10 µM 0 | ALK; 10 µM 0 | ARAF; 10 µM 0 | AURKA; 10 µM 0 | AURKB; 10 µM 0 | AURKC; 10 µM 0 | BLK; 10 µM 0 | BMX; 10 µM 0 | BRAF; 10 µM 0 | BRAF_V600E; 10 µM 0 | BTK; 10 µM 0 | CAMK2A; 10 µM 0 | CAMK2G; 10 µM 0 | CDK10; 10 µM 0 | CDK2; 10 µM 0 | CDK3; 10 µM 0 | CDK4; 10 µM 0 | CDK5; 10 µM 0 | CDK6; 10 µM 0

CC(C)Oc1ccc(-c2nn([C@@H](C)c3oc4ccc(F)cc4c(=O)c3-c3cccc(F)c3)c3ncnc(N)c23)cc1F [Umbralisib]
inactive: ABL1; 2.5 µM 0 | AKT1; 2.5 µM 0 | ALK; 2.5 µM 0 | ARAF; 2.5 µM 0 | AURKA; 2.5 µM 0 | AURKB; 2.5 µM 0 | AURKC; 2.5 µM 0 | BLK; 2.5 µM 0 | BMX; 2.5 µM 0 | BRAF; 2.5 µM 0 | BRAF_V600E; 2.5 µM 0 | BTK; 2.5 µM 0 | CAMK2A; 2.5 µM 0 | CAMK2G; 2.5 µM 0 | CDK10; 2.5 µM 0 | CDK2; 2.5 µM 0 | CDK3; 2.5 µM 0 | CDK4; 2.5 µM 0 | CDK5; 2.5 µM 0 | CDK6; 2.5 µM 0

Quoted from the results shown, 2 compounds:
CCCCCCCCc1ccc(CCC(N)(CO)CO)cc1 [Fingolimod]
inactive: AKT1; 2.5 µM 0 | ALK; 2.5 µM 0 | ARAF; 2.5 µM 0 | AURKA; 2.5 µM 0 | AURKB; 2.5 µM 0 | AURKC; 2.5 µM 0 | BLK; 2.5 µM 0 | BMX; 2.5 µM 0 | BRAF; 2.5 µM 0 | BRAF_V600E; 2.5 µM 0 | BTK; 2.5 µM 0 | CAMK2A; 2.5 µM 0 | CAMK2G; 2.5 µM 0 | CDK10; 2.5 µM 0 | CDK2; 2.5 µM 0 | CDK3; 2.5 µM 0 | CDK4; 2.5 µM 0 | CDK5; 2.5 µM 0 | CDK6; 2.5 µM 0
active: ABL1; 2.5 µM 1

C#Cc1cccc(Nc2ncnc3cc(OCCOC)c(OCCO)cc23)c1 [Desmethyl Erlotinib]
inactive: ABL1; 10 µM 0 | AKT1; 10 µM 0 | ALK; 10 µM 0 | ARAF; 10 µM 0 | AURKA; 10 µM 0 | AURKB; 10 µM 0 | AURKC; 10 µM 0 | BLK; 10 µM 0 | BMX; 10 µM 0 | BRAF; 10 µM 0 | BRAF_V600E; 10 µM 0 | BTK; 10 µM 0 | CAMK2A; 10 µM 0 | CAMK2G; 10 µM 0 | CDK10; 10 µM 0 | CDK2; 10 µM 0 | CDK3; 10 µM 0 | CDK4; 10 µM 0 | CDK5; 10 µM 0 | CDK6; 10 µM 0

The listing continues.

C/C=C1\C(=O)C[C@H]2[C@@H]3CCC4=CC(=O)CC[C@]4(C)[C@H]3CC[C@]12C [Guggulsterone]
inactive: ABL1; 10 µM 0 | AKT1; 10 µM 0 | ALK; 10 µM 0 | ARAF; 10 µM 0 | AURKA; 10 µM 0 | AURKB; 10 µM 0 | AURKC; 10 µM 0 | BLK; 10 µM 0 | BMX; 10 µM 0 | BRAF; 10 µM 0 | BRAF_V600E; 10 µM 0 | BTK; 10 µM 0 | CAMK2A; 10 µM 0 | CAMK2G; 10 µM 0 | CDK10; 10 µM 0 | CDK2; 10 µM 0 | CDK3; 10 µM 0 | CDK4; 10 µM 0 | CDK5; 10 µM 0 | CDK6; 10 µM 0

COc1cc2c(-c3cnn4cc(N5CCC(N6CCN(C)CC6)CC5)cnc34)ccnc2cc1F [ALK2-IN-4 (succinate)]
inactive: ABL1; 10 µM 0 | AKT1; 10 µM 0 | ALK; 10 µM 0 | ARAF; 10 µM 0 | AURKA; 10 µM 0 | AURKB; 10 µM 0 | AURKC; 10 µM 0 | BLK; 10 µM 0 | BMX; 10 µM 0 | BRAF; 10 µM 0 | BRAF_V600E; 10 µM 0 | BTK; 10 µM 0 | CAMK2A; 10 µM 0 | CAMK2G; 10 µM 0 | CDK10; 10 µM 0 | CDK2; 10 µM 0 | CDK3; 10 µM 0 | CDK4; 10 µM 0 | CDK5; 10 µM 0 | CDK6; 10 µM 0

O=C(Nc1ccncc1)Nc1ccc(-c2nc(N3CCOCC3)nc(N3C4CCC3COC4)n2)cc1
inactive: AKT1; 10 µM 0 | ALK; 10 µM 0 | ARAF; 10 µM 0 | AURKB; 10 µM 0 | AURKC; 10 µM 0 | BLK; 10 µM 0 | BMX; 10 µM 0 | BRAF; 10 µM 0 | BRAF_V600E; 10 µM 0 | BTK; 10 µM 0 | CAMK2A; 10 µM 0 | CAMK2G; 10 µM 0 | CDK10; 10 µM 0 | CDK2; 10 µM 0 | CDK3; 10 µM 0 | CDK4; 10 µM 0 | CDK5; 10 µM 0 | CDK6; 10 µM 0
active: ABL1; 10 µM 1 | AURKA; 10 µM 1
